Data source: PubChem BioAssay AID1259308 (NCATS, 2017)
Here is one part, drawn at random, of about 59,000 deposited reagents. In the full data, about 1,510 (2.6%) were called active. 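Calls use total luciferase alone and ignore viability, so some active siRNAs may act by altering cell number.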 A number with no mark means an inactive call. Reagents against one gene are numbered here. Further read-outs or replicates are left out here.

- Aim: 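Genes whose loss raises luciferase production in HEK293 cells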 (primary screen)
- Cells: human HEK293 embryonic kidney cells stably expressing firefly luciferase (HEK-CMV-Luc2-Hygro)
- Knock-down reagent: single siRNA against human genes, 0.8 pmol siRNA per well
- Timing: 72 h
- Measurement: 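Reporter luminescence and viable-cell signal on separate replicate plates, given as percent of non-targeting control and median/MAD z-scores, plus per-cell luciferase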
- Direction: total luciferase, z-score and total luciferase, % of control: higher = more reporter protein produced
- Active means: 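Active when the median/MAD z-score for overall luciferase is greater than 3; a gene was taken forward for validation with new siRNAs if at least two of its three siRNAs passed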
- Meaning of the calls: active = raised luciferase; inactive = no rise

TRIM64 #1 showed total luciferase, z-score 0.861; total luciferase, % of control 99.
TRIM64 #2 showed total luciferase, z-score 0.305; total luciferase, % of control 88.
Silencing of TRIM64 #3 came out at: total luciferase, z-score -1.44; total luciferase, % of control 53.2.
CRX #1 gave total luciferase, z-score -1.53; total luciferase, % of control 51.5.
CRX #2 showed total luciferase, z-score 0.34; total luciferase, % of control 88.7.
After knock-down of CRX #3, the screen gave total luciferase, z-score -0.28; total luciferase, % of control 76.3.
For RASA4CP #1 the deposit lists total luciferase, z-score 0.71; total luciferase, % of control 96.
For RASA4CP #2, the entry reads total luciferase, z-score -1.05; total luciferase, % of control 61.
For RASA4CP #3 the deposit lists total luciferase, z-score 1.42; total luciferase, % of control 110.
Depletion of TCEAL2 #1 gave: total luciferase, z-score 0.175; total luciferase, % of control 85.4.
For TCEAL2 #2, the values are total luciferase, z-score 0.576; total luciferase, % of control 93.3.
Against TCEAL2 #3, the values are total luciferase, z-score 0.865; total luciferase, % of control 99.1.

5 neighbouring records already listed:
RASA4CP #1 — total luciferase, z-score = 0.71; total luciferase, % of control = 96
RASA4CP #2 — total luciferase, z-score = -1.05; total luciferase, % of control = 61
RASA4CP #3 — total luciferase, z-score = 1.42; total luciferase, % of control = 110
TCEAL2 #1 — total luciferase, z-score = 0.175; total luciferase, % of control = 85.4
TCEAL2 #2 — total luciferase, z-score = 0.576; total luciferase, % of control = 93.3

The list goes on:
NGLY1 #1 gave total luciferase, z-score -1.57; total luciferase, % of control 50.6.
Against NGLY1 #2 the deposit lists total luciferase, z-score -1.99; total luciferase, % of control 42.3.
NGLY1 #3 scored total luciferase, z-score 0.183; total luciferase, % of control 85.5.
Knock-down of TSPAN31 #1 came out at: total luciferase, z-score 0.697; total luciferase, % of control 95.7.
For TSPAN31 #2 the deposit lists total luciferase, z-score -0.948; total luciferase, % of control 63.
Depletion of TSPAN31 #3 gave: total luciferase, z-score 1.32; total luciferase, % of control 108.
LY6G6D #1 showed total luciferase, z-score 1.34; total luciferase, % of control 108.
Knock-down of LY6G6D #2 came out at: total luciferase, z-score 0.509; total luciferase, % of control 92.
LY6G6D #3 scored total luciferase, z-score -0.809; total luciferase, % of control 65.8.
Knock-down of NDFIP2 #1 came out at: total luciferase, z-score -1.03; total luciferase, % of control 61.3.
NDFIP2 #2 showed total luciferase, z-score -0.7; total luciferase, % of control 68.
Against NDFIP2 #3, the values are total luciferase, z-score 0.357; total luciferase, % of control 89.
Silencing of CHRFAM7A #1 gave: total luciferase, z-score 0.223; total luciferase, % of control 86.3.
Silencing of CHRFAM7A #2 resulted in: total luciferase, z-score -1.38; total luciferase, % of control 54.4.
Depletion of CHRFAM7A #3 resulted in: total luciferase, z-score -0.0206; total luciferase, % of control 81.5.
Depletion of PRPF39 #1 came out at: total luciferase, z-score 2.37; total luciferase, % of control 129.
For PRPF39 #2, the values are total luciferase, z-score 1.15; total luciferase, % of control 105.
PRPF39 #3 scored total luciferase, z-score 0.184; total luciferase, % of control 85.6.
Knock-down of MEOX1 #1 resulted in: total luciferase, z-score -0.0721; total luciferase, % of control 80.5.
Against MEOX1 #2, the entry reads total luciferase, z-score -0.802; total luciferase, % of control 65.9.
After knock-down of MEOX1 #3, the record shows total luciferase, z-score 2.88; total luciferase, % of control 139.
